{"source": "PubChem BioAssay AID504774 (Drosophila RNAi Screening Center, 2011)", "purpose": "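Genes required for cells to withstand methyl methanesulphonate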 (primary screen)", "cell system": "Drosophila Kc167 cells", "knock-down reagent": "long dsRNA against Drosophila genes, about 0.25 µg dsRNA per well", "duration": "about 6 days: 3 days knock-down, then 3 days with or without MMS", "conditions": "methyl methanesulphonate 0.004% (w/v) for 3 days after knock-down", "measured": "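Viability in wells given MMS, read as ATP luminescence, normalised by quantiles plate by plate and averaged across replicates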", "direction": "mean viability with MMS: higher = more surviving cells after MMS", "note": "The deposit covers about 23,000 reagents; this is a random part of those that have a named target and a result. 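Values are quantile-normalised luminescence on an arbitrary scale; higher means more cells surviving MMS.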 Further read-outs or replicates are left out here."}
{"gene knocked down": "7B2", "amplicon": "DRSC11991", "mean viability with MMS": 3.68e6}
{"gene knocked down": "CG34026", "amplicon": "DRSC17616", "mean viability with MMS": 3.49e6}
{"gene knocked down": "Rpn7 (Regulatory particle non-ATPase 7)", "amplicon": "DRSC16841", "mean viability with MMS": 2.94e6}
{"gene knocked down": "RpL4 (Ribosomal protein L4)", "amplicon": "DRSC16833", "mean viability with MMS": 2.80e6}
{"gene knocked down": "CG15317", "amplicon": "DRSC18005", "mean viability with MMS": 3.76e6}
{"gene knocked down": "CG31262", "amplicon": "DRSC13216", "mean viability with MMS": 3.29e6}
{"gene knocked down": "Rox8", "amplicon": "DRSC16829", "mean viability with MMS": 3.53e6}
{"gene knocked down": "dpr16 (defective proboscis extension response 16)", "amplicon": "DRSC12217", "mean viability with MMS": 3.50e6}
{"gene knocked down": "dpr16 (defective proboscis extension response 16)", "amplicon": "DRSC12249", "mean viability with MMS": 2.11e6}
{"gene knocked down": "FMRFaR (FMRFamide Receptor)", "amplicon": "DRSC08555", "mean viability with MMS": 3.58e6}
{"gene knocked down": "temp (tempura)", "amplicon": "DRSC18271", "mean viability with MMS": 3.63e6}
{"gene knocked down": "ppk (pickpocket)", "amplicon": "DRSC03595", "mean viability with MMS": 3.57e6}
{"gene knocked down": "CG6071", "amplicon": "DRSC10579", "mean viability with MMS": 3.43e6}
{"gene knocked down": "CG31897", "amplicon": "DRSC01020", "mean viability with MMS": 3.51e6}
